Assay results: patent publication US20040073001A1
No constants are given. Whether binding was seen depends on the method and setting. For some assays here: In cells and extracts the contact can be indirect. Some entries that bind do so weakly or less than the wild type. For some assays here: Where a sequence is shown, tags or fusion partners need not be part of it.

Chains of the proteins cited; added tags and fusions are not shown.
UniProt Q02248: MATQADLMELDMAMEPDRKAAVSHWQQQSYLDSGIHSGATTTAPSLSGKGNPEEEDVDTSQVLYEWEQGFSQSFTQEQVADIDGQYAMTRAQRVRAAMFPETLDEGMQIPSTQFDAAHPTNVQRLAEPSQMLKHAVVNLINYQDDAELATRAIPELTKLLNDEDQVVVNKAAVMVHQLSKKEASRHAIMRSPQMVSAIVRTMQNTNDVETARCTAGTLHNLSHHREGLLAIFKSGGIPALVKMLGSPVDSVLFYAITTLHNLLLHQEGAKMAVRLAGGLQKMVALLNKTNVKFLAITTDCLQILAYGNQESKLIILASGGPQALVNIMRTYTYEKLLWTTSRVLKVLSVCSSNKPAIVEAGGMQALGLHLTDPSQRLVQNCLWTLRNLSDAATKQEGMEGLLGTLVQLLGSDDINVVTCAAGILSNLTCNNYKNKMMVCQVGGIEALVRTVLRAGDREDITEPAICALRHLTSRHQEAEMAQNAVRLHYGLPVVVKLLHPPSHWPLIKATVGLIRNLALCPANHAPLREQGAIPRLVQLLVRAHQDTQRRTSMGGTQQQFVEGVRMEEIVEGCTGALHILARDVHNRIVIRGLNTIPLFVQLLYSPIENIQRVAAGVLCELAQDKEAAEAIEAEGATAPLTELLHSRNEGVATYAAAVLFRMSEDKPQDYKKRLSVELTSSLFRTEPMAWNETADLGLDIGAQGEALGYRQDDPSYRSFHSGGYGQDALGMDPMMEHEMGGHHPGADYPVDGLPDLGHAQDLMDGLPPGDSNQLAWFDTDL

Tests used:
[1] = target: GST-β-catenin fusion protein (mouse) (UniProt Q02248); assay: GST pull-down on glutathione-Sepharose 4B, SDS-PAGE and autoradiography
[2] = target: GAL4-β-catenin fusion protein (GAL4 BD fused with mouse β-catenin armadillo domain, residues 128 to 683) (yeast; mouse) (UniProt P04386+Q02248); assay: yeast two-hybrid, β-galactosidase activity

Row | binding [1] | binding [2] | Binder
1 | binds |  | 35S-labeled B9L protein (SEQ ID NO: 4), made by in vitro transcription and translation (protein, 35S-labeled methionine) LANTAAEAVLQGRAESILAYHQQNVPRAKLDQAPKVPPTPEPLPLNTPSAGTPQSQPPPLPPPPPAPGSAPPALPPEGPPEDTSQDLAPNSVGAASTGGGTGGTHPNTPTAATANNPLPPGGDPGSAPGSALLGEATPTGNGQRNLVGSEGLSKEQLEHRERSLQTLRDIERLLLRSGETEPFLKGPPGGAGEGGPPAQAPSAAQPPPSAPPGGLKKYEEPLQSMISQTQSLGGPPLEHEVPGHPQGGDMGQQMNMMMQRLGQDSLTPEQVAWRKLQEEYYEEKRRKEEQIGLHGGRPLQDMVGMGGMMGRGPPPPYHSK
2 |  | binds | GAL4 AD fusion of the partial fragment (244-410) of human bc19 protein (protein, UniProt O00512 244-410, looked up, not shown: large carriers) QDQNSSQNTRLQPTPPIPAPAPKPAAPPRPLDRESPGVENKLIPSVGSPASSTPLPPDGTGPNSTPNNRAVTPVSQGSNSSSADPKAPPPPPVSSGEPPTLGENPDGLSQEQLEHRERSLQTLRDIQRMLFPDEKEFTGAQSGGPQQNPGVLDGPQKKPEGPIQAMM
